PubChem BioAssay AID1259405 – NCATS, 2018

- Aim: 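Silenced genes that increase secreted GFP made by CHO cells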 (primary screen)
- System: Chinese hamster CHO-K1 ovary cells with stable secreted eGFP expression
- Reagents: single siRNA against mouse genes, 0.8 pmol siRNA per well (2 µl of 400 nM stock)
- Timing: 3 days
- Measurement: 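Per-well intracellular GFP measured by laser scanning cytometry, plus viability from ATP luminescence, each relative to plate median of non-targeting control wells, in %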
- Direction: GFP, % of control: higher = more GFP per well, higher productivity; viability (ATP), % of control: higher = more viable cells (more ATP)
- Active means: 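Called active when intracellular GFP, relative to negative control, is at or above 120%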
The deposit covers about 50,000 reagents; shown is a random part of them. About 4,000 of all reagents (8%) count as active. 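Mouse siRNA library applied to hamster cells; one well for each siRNA.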 The numbers tell different reagents against one gene apart.

target gene | reagent no. | GFP, % of control | viability (ATP), % of control | outcome
Or9m2 (olfactory receptor family 9 subfamily M member 2) | 1 | 41.7 | 68.7 | inactive
Or9m2 (olfactory receptor family 9 subfamily M member 2) | 2 | 47.8 | 70.7 | inactive
Or9m2 (olfactory receptor family 9 subfamily M member 2) | 3 | 47.5 | 63.5 | inactive
Sh3bgrl3 (SH3 domain binding glutamic acid-rich protein-like 3) | 1 | 112 | 111 | inactive
Sh3bgrl3 (SH3 domain binding glutamic acid-rich protein-like 3) | 2 | 66.9 | 76.1 | inactive
Sh3bgrl3 (SH3 domain binding glutamic acid-rich protein-like 3) | 3 | 84 | 75.8 | inactive
Trp53i11 (transformation related protein 53 inducible protein 11) | 1 | 118 | 72.3 | inactive
Trp53i11 (transformation related protein 53 inducible protein 11) | 2 | 109 | 99 | inactive
Trp53i11 (transformation related protein 53 inducible protein 11) | 3 | 145 | 83.8 | active
Slc40a1 | 1 | 76.5 | 80.3 | inactive
Slc40a1 | 2 | 44.4 | 51.1 | inactive
Atraid (all-trans retinoic acid induced differentiation factor) | 1 | 85.6 | 86.1 | inactive
Atraid (all-trans retinoic acid induced differentiation factor) | 2 | 117 | 106 | inactive
Atraid (all-trans retinoic acid induced differentiation factor) | 3 | 81.9 | 81.9 | inactive
Vmn1r35 (vomeronasal 1 receptor 35) | 1 | 88.8 | 47.3 | inactive
Vmn1r35 (vomeronasal 1 receptor 35) | 2 | 57.6 | 49.6 | inactive
Vmn1r35 (vomeronasal 1 receptor 35) | 3 | 80.2 | 96.8 | inactive
Sdk2 (sidekick cell adhesion molecule 2) | 1 | 69 | 39.4 | inactive
Sdk2 (sidekick cell adhesion molecule 2) | 2 | 44 | 48 | inactive
Sdk2 (sidekick cell adhesion molecule 2) | 3 | 48.2 | 108 | inactive
Or4c31 (olfactory receptor family 4 subfamily C member 31) | 1 | 55.5 | 52.3 | inactive
Or4c31 (olfactory receptor family 4 subfamily C member 31) | 2 | 73 | 71 | inactive
Or4c31 (olfactory receptor family 4 subfamily C member 31) | 3 | 74.4 | 52.2 | inactive
Dnah1 (dynein, axonemal, heavy chain 1) | 1 | 80.8 | 96.3 | inactive
Dnah1 (dynein, axonemal, heavy chain 1) | 2 | 69 | 45.8 | inactive
Dnah1 (dynein, axonemal, heavy chain 1) | 3 | 67.8 | 88.3 | inactive
Dnah1 (dynein, axonemal, heavy chain 1) | 4 | 130 | 83.9 | active
Dnah1 (dynein, axonemal, heavy chain 1) | 5 | 47.7 | 54.8 | inactive
Dnah1 (dynein, axonemal, heavy chain 1) | 6 | 68.1 | 71.4 | inactive
Or13a20 (olfactory receptor family 13 subfamily A member 20) | 1 | 90.8 | 53.1 | inactive
Or13a20 (olfactory receptor family 13 subfamily A member 20) | 2 | 83.9 | 63.5 | inactive
Or13a20 (olfactory receptor family 13 subfamily A member 20) | 3 | 135 | 123 | active
Spint1 (serine protease inhibitor, Kunitz type 1) | 1 | 101 | 59.4 | inactive
Spint1 (serine protease inhibitor, Kunitz type 1) | 2 | 70.5 | 81.8 | inactive
Spint1 (serine protease inhibitor, Kunitz type 1) | 3 | 91.3 | 105 | inactive
Ctu1 (cytosolic thiouridylase subunit 1) | 1 | 75.3 | 74.3 | inactive
Ctu1 (cytosolic thiouridylase subunit 1) | 2 | 77.1 | 103 | inactive
Ctu1 (cytosolic thiouridylase subunit 1) | 3 | 103 | 134 | inactive
Zfp112 (zinc finger protein 112) | 1 | 84 | 106 | inactive
Zfp112 (zinc finger protein 112) | 2 | 72.5 | 79.3 | inactive
Zfp112 (zinc finger protein 112) | 3 | 58 | 83.3 | inactive
Gpr21 (G protein-coupled receptor 21) | 1 | 122 | 105 | active
Gpr21 (G protein-coupled receptor 21) | 2 | 109 | 102 | inactive
Gpr21 (G protein-coupled receptor 21) | 3 | 74.7 | 77.6 | inactive
Slc25a10 | 1 | 107 | 82.4 | inactive
Slc25a10 | 2 | 120 | 99.9 | inactive
Slc25a10 | 3 | 56.7 | 84.1 | inactive
Rom1 (rod outer segment membrane protein 1) | 1 | 113 | 99.7 | inactive
Rom1 (rod outer segment membrane protein 1) | 2 | 67.4 | 74.5 | inactive
Rom1 (rod outer segment membrane protein 1) | 3 | 87 | 68.1 | inactive
Cdk5rap2 (CDK5 regulatory subunit associated protein 2) | 1 | 46.9 | 67.4 | inactive
Cdk5rap2 (CDK5 regulatory subunit associated protein 2) | 2 | 45.3 | 34.5 | inactive
Cdk5rap2 (CDK5 regulatory subunit associated protein 2) | 3 | 76.7 | 101 | inactive
Clk3 (CDC-like kinase 3) | 1 | 158 | 86.1 | active
Clk3 (CDC-like kinase 3) | 2 | 45.4 | 63.5 | inactive
Clk3 (CDC-like kinase 3) | 3 | 71 | 70.8 | inactive
Aldh3a1 (aldehyde dehydrogenase family 3, subfamily A1) | 1 | 75.8 | 82.2 | inactive
Aldh3a1 (aldehyde dehydrogenase family 3, subfamily A1) | 2 | 134 | 93.7 | active
Aldh3a1 (aldehyde dehydrogenase family 3, subfamily A1) | 3 | 61.3 | 55.6 | inactive
Uba2 (ubiquitin-like modifier activating enzyme 2) | 1 | 59.6 | 57.6 | inactive
Uba2 (ubiquitin-like modifier activating enzyme 2) | 2 | 56.6 | 46.6 | inactive
Uba2 (ubiquitin-like modifier activating enzyme 2) | 3 | 109 | 109 | inactive
Rph3al (rabphilin 3A-like (without C2 domains)) | 1 | 65.5 | 52.9 | inactive
Rph3al (rabphilin 3A-like (without C2 domains)) | 2 | 91.3 | 69.5 | inactive
Or52x1 (olfactory receptor family 52 subfamily X member 1) | 1 | 38.4 | 64.5 | inactive
Or52x1 (olfactory receptor family 52 subfamily X member 1) | 2 | 60.6 | 40.4 | inactive
Or52x1 (olfactory receptor family 52 subfamily X member 1) | 3 | 55.8 | 65.2 | inactive
Fam216a (family with sequence similarity 216, member A) | 1 | 57.2 | 87.7 | inactive
Fam216a (family with sequence similarity 216, member A) | 2 | 79.2 | 59.4 | inactive
Fam216a (family with sequence similarity 216, member A) | 3 | 76 | 83.9 | inactive
Kif15 (kinesin family member 15) | 1 | 97.1 | 115 | inactive
Kif15 (kinesin family member 15) | 2 | 86 | 79.6 | inactive
Sh3gl2 (SH3-domain GRB2-like 2) | 1 | 104 | 85 | inactive
Sh3gl2 (SH3-domain GRB2-like 2) | 2 | 80.9 | 75.4 | inactive
Sh3gl2 (SH3-domain GRB2-like 2) | 3 | 71.7 | 89.3 | inactive
Tpi1 (triosephosphate isomerase 1) | 1 | 81.9 | 73.7 | inactive
Tpi1 (triosephosphate isomerase 1) | 2 | 58.2 | 73.6 | inactive
Tpi1 (triosephosphate isomerase 1) | 3 | 63.4 | 55.5 | inactive
Slc39a12 | 1 | 96.2 | 79 | inactive
Slc39a12 | 2 | 81.5 | 63 | inactive
Slc39a12 | 3 | 67.9 | 61.5 | inactive
Cited2 | 1 | 91.4 | 75.9 | inactive
Cited2 | 2 | 56.5 | 42.6 | inactive
Timm50 (translocase of inner mitochondrial membrane 50) | 1 | 63.9 | 69.6 | inactive
Timm50 (translocase of inner mitochondrial membrane 50) | 2 | 71.2 | 81.5 | inactive
Timm50 (translocase of inner mitochondrial membrane 50) | 3 | 61.8 | 54.3 | inactive

Targets above whose target name starts with C or c:
target gene | reagent no. | GFP, % of control | viability (ATP), % of control | outcome
Ctu1 (cytosolic thiouridylase subunit 1) | 1 | 75.3 | 74.3 | inactive
Ctu1 (cytosolic thiouridylase subunit 1) | 2 | 77.1 | 103 | inactive
Ctu1 (cytosolic thiouridylase subunit 1) | 3 | 103 | 134 | inactive
Cdk5rap2 (CDK5 regulatory subunit associated protein 2) | 1 | 46.9 | 67.4 | inactive
Cdk5rap2 (CDK5 regulatory subunit associated protein 2) | 2 | 45.3 | 34.5 | inactive
Cdk5rap2 (CDK5 regulatory subunit associated protein 2) | 3 | 76.7 | 101 | inactive
Clk3 (CDC-like kinase 3) | 1 | 158 | 86.1 | active
Clk3 (CDC-like kinase 3) | 2 | 45.4 | 63.5 | inactive
Clk3 (CDC-like kinase 3) | 3 | 71 | 70.8 | inactive
Cited2 | 1 | 91.4 | 75.9 | inactive
Cited2 | 2 | 56.5 | 42.6 | inactive
